Source: patent US20250288619A1, “PHARMACEUTICAL COMPOSITION, MEGASPHAERA, AND USE THEREOF” (MOON (GUANGZHOU) BIOTECH CO., LTD., priority 2022, published 2025)
At least one structure is not confirmed: it was looked up by name or label, or the drawing left a doubt.

Tests used:
Format in all cases: cell-based, Megasphaera sp.
strain MNH05026 = assay: Antibiotic sensitivity test by disk diffusion method, strain MNH05026
Description: (§1) Antibiotic sensitivity tests of the strains MNH05026, MNH22004, and MNH27256: Antibiotic sensitivity tests were carried out on the strain MNH05026 by a disk diffusion method.

strain MNH27256 = assay: Antibiotic sensitivity test by disk diffusion method, strain MNH27256
Description: as §1

strain MNH22004 = assay: Antibiotic sensitivity test by disk diffusion method, strain MNH22004
Description: as §1

CN(C)[C@@H]1C(O)=C(C(N)=O)C(=O)[C@@]2(O)C(O)=C3C(=O)c4c(O)cccc4[C@@](C)(O)[C@H]3C[C@@H]12 [Tetracycline]
sensitive: Sensitivity or resistance of strain MNH05026 to the antibiotic (strain MNH05026) | Sensitivity or resistance of strain MNH27256 to the antibiotic (strain MNH27256) | Sensitivity or resistance of strain MNH22004 to the antibiotic (strain MNH22004)
